PubChem BioAssay AID493246 | Drosophila RNAi Screening Center | 2011
The deposit covers about 21,000 reagents; shown is an unselected part of those with a known target gene and a result. Over the whole deposit, 429 (2%) got an active call. 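Values are raw and not normalised between plates; calls rest on per-plate z-scores that were not deposited.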 Entries without a mark were called inactive. Not given: the amount of reagent, the time to read-out.

- Assay: 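Genome-wide search for dsRNAs that reduce cell number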 (primary screen)
- Cells: Drosophila Kc and S2R+ cells
- Knock-down reagent: long dsRNA against Drosophila genes
- Detection: 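Raw, unnormalised count of remaining cells in each well; per-plate z-scores of cell number underlie the calls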
- Scale: Kc cell number and S2R+ cell number: higher = more cells remaining
- Active means: 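Counted as a hit if cell number falls by a z-score of at least 3 within its plate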

For CG30485, the entry reads Kc cell number, rep 1 = 1.67e6; Kc cell number, rep 2 = 1.71e6; S2R+ cell number, rep 1 = 1.41e6; S2R+ cell number, rep 2 = 1.47e6. Against Hr51 the deposit lists Kc cell number, rep 1 = 1.69e6; Kc cell number, rep 2 = 1.72e6; S2R+ cell number, rep 1 = 1.23e6; S2R+ cell number, rep 2 = 1.48e6. Knock-down of CG6678 gave: Kc cell number, rep 1 = 1.52e6; Kc cell number, rep 2 = 1.53e6; S2R+ cell number, rep 1 = 1.23e6; S2R+ cell number, rep 2 = 1.27e6. For CG31373, the entry reads Kc cell number, rep 1 = 1.44e6; Kc cell number, rep 2 = 1.42e6; S2R+ cell number, rep 1 = 1.25e6; S2R+ cell number, rep 2 = 1.33e6. Silencing of ATPsynCF6 resulted in: Kc cell number, rep 1 = 1.44e6; Kc cell number, rep 2 = 1.54e6; S2R+ cell number, rep 1 = 8.80e5; S2R+ cell number, rep 2 = 9.94e5. Against CG13130 (retired record), the entry reads Kc cell number, rep 1 = 1.58e6; Kc cell number, rep 2 = 1.56e6; S2R+ cell number, rep 1 = 1.09e6; S2R+ cell number, rep 2 = 1.24e6.

With knock-down of Sec5, the screen gave Kc cell number, rep 1 = 1.16e6; Kc cell number, rep 2 = 1.26e6; S2R+ cell number, rep 1 = 1.03e6; S2R+ cell number, rep 2 = 9.82e5. Depletion of CG30114 came out at: Kc cell number, rep 1 = 5.69e5; S2R+ cell number, rep 1 = 6.77e5. Against unc-119 the deposit lists Kc cell number, rep 1 = 1.52e6; Kc cell number, rep 2 = 1.54e6; S2R+ cell number, rep 1 = 1.09e6; S2R+ cell number, rep 2 = 1.19e6. Silencing of brat came out at: Kc cell number, rep 1 = 1.41e6; Kc cell number, rep 2 = 1.45e6; S2R+ cell number, rep 1 = 1.20e6; S2R+ cell number, rep 2 = 1.22e6. Silencing of DIP2 came out at: Kc cell number, rep 1 = 1.28e6; Kc cell number, rep 2 = 1.34e6; S2R+ cell number, rep 1 = 1.18e6; S2R+ cell number, rep 2 = 1.25e6. CG34008 showed Kc cell number, rep 1 = 1.44e6; Kc cell number, rep 2 = 1.39e6; S2R+ cell number, rep 1 = 1.07e6; S2R+ cell number, rep 2 = 1.10e6.

CG32773 (retired record) showed Kc cell number, rep 1 = 1.10e6; Kc cell number, rep 2 = 1.28e6; S2R+ cell number, rep 1 = 1.07e6; S2R+ cell number, rep 2 = 1.14e6. After knock-down of rno the results were Kc cell number, rep 1 = 1.56e6; Kc cell number, rep 2 = 1.41e6; S2R+ cell number, rep 1 = 1.05e6; S2R+ cell number, rep 2 = 1.22e6. CG15650 scored Kc cell number, rep 1 = 1.60e6; Kc cell number, rep 2 = 1.68e6; S2R+ cell number, rep 1 = 1.36e6; S2R+ cell number, rep 2 = 4.71e5. With knock-down of Sras, the screen gave Kc cell number, rep 1 = 1.25e6; Kc cell number, rep 2 = 1.55e6; S2R+ cell number, rep 1 = 1.19e6; S2R+ cell number, rep 2 = 1.24e6. Sardh scored Kc cell number, rep 1 = 1.39e6; Kc cell number, rep 2 = 1.49e6; S2R+ cell number, rep 1 = 1.09e6; S2R+ cell number, rep 2 = 1.11e6. Depletion of CG7386 came out at: Kc cell number, rep 1 = 1.33e6; Kc cell number, rep 2 = 1.26e6; S2R+ cell number, rep 1 = 1.19e6; S2R+ cell number, rep 2 = 1.18e6.

For Aptx, the values are Kc cell number, rep 1 = 1.43e6; Kc cell number, rep 2 = 1.44e6; S2R+ cell number, rep 1 = 1.08e6; S2R+ cell number, rep 2 = 1.20e6. Knock-down of CG15343 came out at: Kc cell number, rep 1 = 1.56e6; Kc cell number, rep 2 = 1.51e6; S2R+ cell number, rep 1 = 1.08e6; S2R+ cell number, rep 2 = 1.18e6. qvr gave Kc cell number, rep 1 = 1.49e6; Kc cell number, rep 2 = 1.47e6; S2R+ cell number, rep 1 = 1.04e6; S2R+ cell number, rep 2 = 1.16e6.

Sorted by “Kc cell number, rep 2” (high to low): 2 of the entries above.
rno → Kc cell number, rep 1 = 1.56e6; Kc cell number, rep 2 = 1.41e6; S2R+ cell number, rep 1 = 1.05e6; S2R+ cell number, rep 2 = 1.22e6
CG32773 (retired record) → Kc cell number, rep 1 = 1.10e6; Kc cell number, rep 2 = 1.28e6; S2R+ cell number, rep 1 = 1.07e6; S2R+ cell number, rep 2 = 1.14e6
